Measurements reported in publication PMC10993396.
Results are given in words; binding and its absence hold for the method and conditions named. In cells and extracts the contact can be indirect. Tags and fused reporters may be left off the sequences shown.

By UniProt entry, the sequences of proteins in these tests, tags left out.
UniProt Q9FIJ0: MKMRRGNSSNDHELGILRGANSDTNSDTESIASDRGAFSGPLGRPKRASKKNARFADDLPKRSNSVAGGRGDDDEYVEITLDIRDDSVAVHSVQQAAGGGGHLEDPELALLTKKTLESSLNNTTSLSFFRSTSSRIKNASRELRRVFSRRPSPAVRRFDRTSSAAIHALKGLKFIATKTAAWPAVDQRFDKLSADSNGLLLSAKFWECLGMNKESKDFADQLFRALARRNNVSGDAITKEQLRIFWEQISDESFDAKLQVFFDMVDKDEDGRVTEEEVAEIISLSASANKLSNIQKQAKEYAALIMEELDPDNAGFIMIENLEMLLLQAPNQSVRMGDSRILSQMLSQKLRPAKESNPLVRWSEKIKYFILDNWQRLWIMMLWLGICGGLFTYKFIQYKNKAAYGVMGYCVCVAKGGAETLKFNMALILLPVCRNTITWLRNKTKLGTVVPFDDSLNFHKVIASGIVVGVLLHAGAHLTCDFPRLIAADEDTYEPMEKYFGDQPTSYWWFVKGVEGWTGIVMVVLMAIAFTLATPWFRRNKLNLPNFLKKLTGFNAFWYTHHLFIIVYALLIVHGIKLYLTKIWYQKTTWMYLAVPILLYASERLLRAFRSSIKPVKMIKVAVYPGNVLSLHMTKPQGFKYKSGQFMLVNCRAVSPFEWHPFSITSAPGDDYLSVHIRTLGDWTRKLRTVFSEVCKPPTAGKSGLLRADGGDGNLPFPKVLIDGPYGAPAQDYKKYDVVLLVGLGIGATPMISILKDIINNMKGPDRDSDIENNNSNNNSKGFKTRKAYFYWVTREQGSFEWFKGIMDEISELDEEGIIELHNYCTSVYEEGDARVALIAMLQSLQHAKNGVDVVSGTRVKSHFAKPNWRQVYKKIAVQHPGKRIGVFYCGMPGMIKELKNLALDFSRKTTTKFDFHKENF

T1: Arabidopsis thaliana Mitogen-activated protein Kinase Phosphatase 1 (MKP1), MYC-tagged (Arabidopsis thaliana) (UniProt Q9C5S1)
T1 sequence: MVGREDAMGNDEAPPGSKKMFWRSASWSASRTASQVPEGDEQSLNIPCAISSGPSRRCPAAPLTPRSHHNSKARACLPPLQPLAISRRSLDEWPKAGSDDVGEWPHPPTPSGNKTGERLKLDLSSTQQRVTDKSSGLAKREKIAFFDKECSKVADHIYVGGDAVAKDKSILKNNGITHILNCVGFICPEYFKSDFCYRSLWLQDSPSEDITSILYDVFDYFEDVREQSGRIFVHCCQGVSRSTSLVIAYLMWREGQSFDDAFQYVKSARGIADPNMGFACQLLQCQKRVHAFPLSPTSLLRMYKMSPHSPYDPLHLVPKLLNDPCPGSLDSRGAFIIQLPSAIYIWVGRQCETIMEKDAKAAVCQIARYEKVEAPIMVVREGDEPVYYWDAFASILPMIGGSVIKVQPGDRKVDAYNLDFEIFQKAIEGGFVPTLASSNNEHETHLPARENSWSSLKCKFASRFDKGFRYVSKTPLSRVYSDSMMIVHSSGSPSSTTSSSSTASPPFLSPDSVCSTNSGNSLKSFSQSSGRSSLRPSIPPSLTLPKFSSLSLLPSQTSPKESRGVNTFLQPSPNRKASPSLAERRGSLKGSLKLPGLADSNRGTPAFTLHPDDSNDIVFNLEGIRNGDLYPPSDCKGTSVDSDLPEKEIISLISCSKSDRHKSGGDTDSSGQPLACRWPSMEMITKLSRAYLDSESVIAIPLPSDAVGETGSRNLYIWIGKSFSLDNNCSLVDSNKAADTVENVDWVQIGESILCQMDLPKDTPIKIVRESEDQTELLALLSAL

T2: BOTRYTIS INDUCED KINASE 1 (BIK1), HA-tagged (Arabidopsis thaliana) (UniProt O48814)
T2 sequence: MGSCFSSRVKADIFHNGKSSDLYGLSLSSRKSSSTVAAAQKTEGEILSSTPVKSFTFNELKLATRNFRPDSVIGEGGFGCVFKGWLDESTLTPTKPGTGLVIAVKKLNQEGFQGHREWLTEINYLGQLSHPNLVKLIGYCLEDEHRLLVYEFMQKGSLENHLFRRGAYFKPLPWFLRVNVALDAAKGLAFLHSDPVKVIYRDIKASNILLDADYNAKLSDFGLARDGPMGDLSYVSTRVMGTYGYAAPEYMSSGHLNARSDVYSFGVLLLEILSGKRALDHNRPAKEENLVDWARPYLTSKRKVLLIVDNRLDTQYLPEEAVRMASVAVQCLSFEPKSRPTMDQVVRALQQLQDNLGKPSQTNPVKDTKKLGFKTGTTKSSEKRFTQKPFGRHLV


Key:
Assay in all cases: co-IP; total protein extracts of 12-day-old Arabidopsis seedlings co-expressing both tagged proteins, treated 10 min with 500 nM flg22 or H2O; extraction buffer 50 mM Tris-HCl pH 7.5, 200 mM NaCl, 0.1% Tween-20; anti-MYC, anti-FLAG or anti-HA microbeads (µMACS) for 2 hours; detection by western …
[1] = biological target: T1, Arabidopsis thaliana Mitogen-activated protein Kinase Phosphatase 1 (MKP1), MYC-tagged (Arabidopsis thaliana)
[2] = biological target: T2, BOTRYTIS INDUCED KINASE 1 (BIK1), HA-tagged (Arabidopsis thaliana)
[3] = biological target: NADPH oxidase RBOHD (RESPIRATORY BURST OXIDASE HOMOLOG D), FLAG-tagged (Arabidopsis thaliana) (UniProt Q9FIJ0)

Row | binding [1] | binding [2] | binding [3] | Molecule
1 | no binding | – | – | NADPH oxidase RBOHD (RESPIRATORY BURST OXIDASE HOMOLOG D), FLAG-tagged (from UniProt Q9FIJ0 1-921) (enzyme)
2 | – | no binding | no binding | Arabidopsis thaliana Mitogen-activated protein Kinase Phosphatase 1 (MKP1), MYC-tagged (enzyme, UniProt Q9C5S1 1-784) MVGREDAMGNDEAPPGSKKMFWRSASWSASRTASQVPEGDEQSLNIPCAISSGPSRRCPAAPLTPRSHHNSKARACLPPLQPLAISRRSLDEWPKAGSDDVGEWPHPPTPSGNKTGERLKLDLSSTQQRVTDKSSGLAKREKIAFFDKECSKVADHIYVGGDAVAKDKSILKNNGITHILNCVGFICPEYFKSDFCYRSLWLQDSPSEDITSILYDVFDYFEDVREQSGRIFVHCCQGVSRSTSLVIAYLMWREGQSFDDAFQYVKSARGIADPNMGFACQLLQCQKRVHAFPLSPTSLLRMYKMSPHSPYDPLHLVPKLLNDPCPGSLDSRGAFIIQLPSAIYIWVGRQCETIMEKDAKAAVCQIARYEKVEAPIMVVREGDEPVYYWDAFASILPMIGGSVIKVQPGDRKVDAYNLDFEIFQKAIEGGFVPTLASSNNEHETHLPARENSWSSLKCKFASRFDKGFRYVSKTPLSRVYSDSMMIVHSSGSPSSTTSSSSTASPPFLSPDSVCSTNSGNSLKSFSQSSGRSSLRPSIPPSLTLPKFSSLSLLPSQTSPKESRGVNTFLQPSPNRKASPSLAERRGSLKGSLKLPGLADSNRGTPAFTLHPDDSNDIVFNLEGIRNGDLYPPSDCKGTSVDSDLPEKEIISLISCSKSDRHKSGGDTDSSGQPLACRWPSMEMITKLSRAYLDSESVIAIPLPSDAVGETGSRNLYIWIGKSFSLDNNCSLVDSNKAADTVENVDWVQIGESILCQMDLPKDTPIKIVRESEDQTELLALLSAL
